Article PMC5359613
These are yes or no findings as the source states them, for the method shown. For some of these results: A result given as binding can be weak or reduced; the word gives no strength. Where a sequence is shown, tags or fusion partners need not be part of it.

T1: MadB of Phycomyces blakesleeanus (homolog of N. crassa WC-2) (Phycomyces blakesleeanus) (UniProt B5M9P7)
T1 sequence: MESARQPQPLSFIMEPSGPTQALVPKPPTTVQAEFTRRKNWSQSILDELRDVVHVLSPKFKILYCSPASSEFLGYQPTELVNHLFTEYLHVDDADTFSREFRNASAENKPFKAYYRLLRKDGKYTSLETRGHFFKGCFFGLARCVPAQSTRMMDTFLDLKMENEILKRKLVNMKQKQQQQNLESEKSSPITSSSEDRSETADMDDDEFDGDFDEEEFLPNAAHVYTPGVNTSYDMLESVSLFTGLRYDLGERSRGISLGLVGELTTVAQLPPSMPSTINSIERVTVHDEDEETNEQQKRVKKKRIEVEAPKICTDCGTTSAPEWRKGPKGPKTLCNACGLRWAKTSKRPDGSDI


Key:
Test in all cases: two-hybrid; Gal4 activation domain (pGADT7) and DNA binding domain (pGBKT7) fusions co-transformed into S. cerevisiae PJ69-4A; growth on -histidine + 0.5 mM 3-amino triazole or -adenine, and β-galactosidase activity
[1] = molecular target: T1, MadB of Phycomyces blakesleeanus (homolog of N. crassa WC-2) (Phycomyces blakesleeanus)
[2] = molecular target: MadA of Phycomyces blakesleeanus (homolog of N. crassa WC-1) (Phycomyces blakesleeanus)
[3] = molecular target: RasA, Ras homolog of Phycomyces blakesleeanus (Phycomyces blakesleeanus)
[4] = molecular target: RasB, Ras homolog of Phycomyces blakesleeanus (Phycomyces blakesleeanus)

Row | binding [1] | binding [2] | binding [3] | binding [4] | Molecule
1 | binds | – | – | – | MadA of Phycomyces blakesleeanus (homolog of N. crassa WC-1)
2 | – | no binding | binds | binds | MadC protein of Phycomyces blakesleeanus (Ras GTPase activating protein) (protein, UniProt A0A1U9IW06 1-821) MAGHTHVLSDSHSRTIPSDYLANSTIVSRAMAAAAANNHHNAHAIRRGRQSHRYDVSVFYSMAAEQDIEIEDDLALAQRTLRDFKSNISAQSKKNFMLERDVRFLDSRIALLIQNRMALDEQTEVVSHLEYHDDDTEGHYPDDRKMQQYGSLFFLLQCEPRHMATLCRLVRLSEIDTLLQTVMFTLYGNQYESREEHLLLTMFQNVLAAQFETTSEFASLLRANTPVSRMMTTYTRRGPGQSYLKLVLSDRINRLIEQVDLNLQINPLKVYEELILAAEEGREEDQGLERGISAEGAAAHPQVKATIKPRLALLMETAESFLDTILGSLDKVPYGIRWICKQIRSLTRRKYPDASDSAIASLIGGFFFLRFINPAIVTPQAYMLVDNLPKNHPRAVLTLVAKLLQNLANKPAYAKESYMIPTNSFIEKNKQRINKFLNDLCEVGDFYESLEMDQYMTLSKKDIIINITPNEIYNTLALLQQHIDILAPKPTDHLRVLVSELGTALPQVARQHNKPIELPLFSRWEIPIQDLTMALMSENNITQSDITYMETKAIFVQIIRSLPYLSRPPLQLAQILETANTAKDPLLTRKGLKVTEMLDELERMGVIHRQDGYKLLVEEITQELAHLGDLKDKVVEEMGSLEGVYKTILDHNNYLKIQLESYRAYLQNVRMLSIGNTKEAVHHGHEPALAEKQVGLGVALTTGKTAKKTVKSQHLQGPFKFSHQQLEREGVIAETEVAEHRRCNIFLSVLSPLPGTFIISLHYKGRERPVLEIDLKLDDLLERQQDNVQLLDLEYMKLHVTKTLQLLTKTFMTKNKTGFFS
